The other results are listed elsewhere or left out.
B1: il2ra_site2_2erj_sap_16_mot_HHH_b1_03572_af2_000000164_0001_41_56_H_._HHH_b1_07106_0001_0000700021_0000001_0_0001_af2pred_0001_1_af2pred_swapped (protein)
chain: SSSSDVEEEIEELIEEAKRLLEEGDPERAREVLQEASQLAFEARDEELLMELLRLLDELFSSSSS
B2: il2ra_site1_1z92_sap_16_mot_HHH_b2_02639_000000145_0001_40_57_H_._ems_3hC_505_0001_af2_0001_0000300022_0000001_0_0001_af2pred_0001_af2pred_swapped (protein)
chain: SSSSDSSRFALEVVLKLVRELGLDLEQIRALLEVAREADEKGLSEEEIEELLREVAEELSSSSSS
B3: il2ra_site1_3nfp_normal_mot_eb5a5eebac1e5153f932cc6c3f4b2787_0001_af2_000000065_0001_18_33_H_._HHH_b2_05299_0001_0000300021_0000001_0 (protein)
chain: SSSSSDEEKREEARELIELARHIEDPEEASEVLEEAYRLLAEVQDRELLEELYRLMREIVSSSSS
B4: il2ra_site2_2erj_sap_23_mot_9983d6beee032e3819f467d055548630_0001_1_000000194_0001_16_32_H_._bee18c9904f98e661b1e98a71a1d884a_0001_af2_0001_0000200025_0000001_0 … (protein)
chain: SSSSNLSEEASELVKRAMEDPEFREEARELLEELLERAEERGDEEAAEVIRAALELLEEGSSSSS
B5: il2ra_site1_3nfp_normal_mot_HHH_b1_05931_000000015_0001_42_57_H_._c0fd2ee23bf7eac90f0defb3b9babf8d_0001_0001_0000600031_0000001_0_af2pred_0001_af2pred (protein)
chain: NEAARILKEVARRGLLSPEALKAIYELAREVLREGDPELERLFREIIELLKRNVEEAEELAEKLR
B6: il2ra_site1_3nfp_sap_17_mot_HHH_b1_08597_000000017_0001_1_18_H_._4428453eb85d3cbdb794fa6b82d21c19_0001_0001_0000100002_0000001_0_0001 (protein)
chain: SSSSSDAFKRALELARRIMELLKEGNPEEAEELIRELEEMAKELNDPAAEWAVEQLERSLSSSSS
B7: il2ra_site2_3nfp_sap_28_mot_HHH_b2_05717_000000156_0001_42_56_H_._HHH_b2_05335_0001_0000100003_0000001_0_0001_af2pred_0001_1_af2pred_swapped (protein)
chain: SSSSSTEEEREEVEELLERAKEITDPEERQELLHRASRIAFEANDEELIELVAEVYVKLSSSSSS
B8: il2ra_site1_2b5i_sap_16_mot_HHH_b1_02182_000000065_0001_18_33_H_._ac710d00df0a15e663fb636f306744b3_0001_1_af2_0001_0000100004_0000001_0_0001 (protein)
chain: SSSSSSDAEEEVKELLEEARQIDDPEENEEVLFEALHLAWRAGNPELRELVEKVAKEISSSSSSS
B9: il2ra_site1_2b5i_normal_mot_HHH_b1_01419_af2_000000080_0001_42_53_H_._HHH_b1_02124_af2_0001_0000300020_0000001_0_af2pred_dldesign_0_af2pred (protein)
chain: SSSSDEKEDEVYDLAQEALRLHLAGKKEEALELLEKALELAKELGNEKLVKEIQDLIERLKSSSS
B10: il2ra_site2_2erj_normal_mot_HHH_b1_08609_af2_000000264_0001_43_56_H_._HHH_b1_00136_0001_0000100011_0000001_0 (protein)
chain: SSSSSVEEAERLLRFVFELASKLGLSLEQAEELIELLQELLERGVSEEEAEEELEKLAEELSSSS
B11: il2ra_site1_2b5i_normal_mot_f5ff40796168375b462bec8614a1db4a_0001_1_000000138_0001_53_65_H_._HHH_b2_04276_0001_0000100001_0000001_0_af2pred_dldesign_0_af2pred (protein)
chain: SSSSSSAKELVEELIEEARRLKEEGKPELARKLLKLARRIAKKHNDEELVAKVERVEAELSSSSS
B12: il2ra_site1_2b5i_sap_21_mot_HHH_b1_07473_af2_000000006_0001_1_20_H_._HHH_b2_06391_af2_0001_0000500030_0000001_0_0001_af2pred_dldesign_0_af2pred (protein)
chain: SSSSDPALRAWVDEALRRARELKEAGKRREALELLEEAYKKASAVDDEENIAKIEELAKELSSSS
B13: il2ra_site2_2erj_normal_mot_ems_3hC_1315_af2_000000245_0001_45_63_H_._HHH_b1_01060_0001_0000200024_0000001_0 (protein)
chain: SSSSDVEERLEEFIQREAERLNDPYLLRFLRRLIEYALKAGASEEEIERALEETIRILEEQSSSS
B14: il2ra_site1_2b5i_normal_mot_HHH_b2_04910_000000118_0001_1_19_H_._HHH_b2_06515_0001_0000200018_0000001_0_af2pred_dldesign_0_af2pred (protein)
chain: SSSSDPYAEILELFKKAEELFKAGKEEEAKKVLEEAIELAKEAGLPALVRFLEAALEAVESSSSS
B15: il2ra_site2_3nfp_sap_21_mot_HHH_b2_05281_000000198_0001_39_56_H_._8592ef0b0fd44ae0c6739e17f45934d2_0001_af2_0001_0000400023_0000001_0_0001_af2pred_0001_af2pred (protein)
chain: SSSSSEDEEEVEKLLREAEEARKKNPTLALQLLAEALLIAIRTNNEELREEVLKVIKELLESSSS
B16: il2ra_site1_3nfp_normal_mot_HHH_b1_07644_af2_000000110_0001_40_57_H_._91f0cba056638229c376853e1afea4e2_0001_1_0001_0000500039_0000001_0_af2pred_0001_af2pred_1 (protein)
chain: STVERVIEDLRRLGDPRAEELAEILEELLRRGVPPREVLEEAAKVAEELGDPIAAELLRRAARLL
B17: il2ra_site1_3nfp_sap_20_mot_ems_3hC_501_000000016_0001_1_20_H_._HHH_b2_04541_af2_0001_0000200022_0000001_1_0001 (protein)
chain: DDRIAKRIDELLRKIPDPELLQALWKLLEIFIRDPERAIEELRELVKEFGDPLAEEILELLEEAK
B18: il2ra_site2_2erj_sap_18_mot_HHH_b1_04373_af2_000000118_0001_18_33_H_._HHH_b2_03515_0001_0000500015_0000001_0_0001 (protein)
chain: SSSSLEERIEELYELIEELLKRGDVQRVNEVLTEILRLAEEIGDPEVIRLAWEALRLSVERHSSS
B19: il2ra_site1_3nfp_sap_14_mot_7e5d6dae1157c95132ff0874b0fd9e6b_0001_1_af2_000000004_0001_1_12_H_._HHH_b2_06908_0001_0000800038_0000001_0_0001 (protein)
chain: SKVILYAIEQFKKDGIPPEKIVEWLLEAAKAIGLPPEELEKMLEELLERTGDPLLERLLELLEER

What follows are binders tested against il2ra, P01589 (assay: yeast display titration).

Apparent Kd, inactive:
B1 no binding seen, B2 no binding seen, B3 no binding seen, B4 no binding seen, B5 no binding seen, B6 no binding seen, B7 no binding seen, B8 no binding seen, B9 no binding seen, B10 no binding seen, B11 no binding seen, B12 no binding seen, B13 no binding seen, B14 no binding seen, B15 no binding seen, B16 no binding seen, B17 no binding seen, B18 no binding seen, B19 no binding seen
